Reference: patent US20110206660A1 (Ablynx, published 2011)
No constants are given. Whether binding was seen depends on the method and setting. Some binding calls cover weakened binding; strength is not graded here.

Protein sequences, listed by entry. Tags and fused reporters are not part of them. Lines headed by an entry give the natural chain unless they say otherwise; changes in a name come on top.
UniProt P61073: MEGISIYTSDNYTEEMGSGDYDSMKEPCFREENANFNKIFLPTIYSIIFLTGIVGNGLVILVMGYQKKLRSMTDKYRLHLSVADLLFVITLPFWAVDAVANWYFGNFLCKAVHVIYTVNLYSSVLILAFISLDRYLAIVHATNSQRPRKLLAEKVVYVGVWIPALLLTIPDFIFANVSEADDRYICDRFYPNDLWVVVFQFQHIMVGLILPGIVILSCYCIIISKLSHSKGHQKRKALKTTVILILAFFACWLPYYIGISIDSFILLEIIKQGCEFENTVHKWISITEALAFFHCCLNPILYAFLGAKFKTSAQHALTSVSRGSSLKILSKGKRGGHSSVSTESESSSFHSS

Experiments:
human CXCR4 [1] = molecular target: T1, human CXCR4 (human, UniProt P61073-2 2-356); assay: [125I]-CXCL12 competition binding, periplasm 1:10, HEK293T-CXCR4 membranes, second screen
human CXCR4 [2] = molecular target: T1, human CXCR4; assay: [125I]-CXCL12 competition binding, periplasm 1:10, HEK293T-CXCR4 membranes, primary screen
human CXCR4 [3] = molecular target: T1, human CXCR4; assay: total binding of the 125I-labelled Nanobody to membranes
[4] = molecular target: T2, constitutively active CXCR4 mutant N119A (UniProt P61073 1-352); assay: competition with [125I]-CXCL12, membranes of HEK293T cells expressing CXCR4 N119A (N3.35A)
human CXCR4 [5] = molecular target: T1, human CXCR4; assay: total binding of [125I]-238D4 to membranes of HEK293T cells expressing CXCR4 or CXCR3, without (-) and with 3 µM AMD3100
human CXCR4 [6] = molecular target: T1, human CXCR4; assay: phage ELISA: monoclonal phage on coated CHO-CXCR4 membranes against CHO membranes with a non relevant GPCR (-)
human CXCR4 [7] = molecular target: T1, human CXCR4; assay: competition with [125I]-238D2, membranes of HEK293T cells expressing CXCR4
human CXCR4 [8] = molecular target: T1, human CXCR4; assay: screen of periplasma fractions, competition vs [125I]-CXCL12, HEK293T-CXCR4 membranes
human CXCR4 [9] = molecular target: T1, human CXCR4; assay: competition with [125I]-238D4, membranes of HEK293T cells expressing CXCR4
human CXCR4 [10] = molecular target: T1, human CXCR4; assay: competition binding vs [125I]-CXCL12, HEK293T-CXCR4 membranes
[11] = molecular target: T2, constitutively active CXCR4 mutant N119A; assay: competition binding vs [125I]-CXCL12, membranes with CXCR4 (N119A); no plateau at 2 µM
[12] = molecular target: T2, constitutively active CXCR4 mutant N119A; assay: competition binding vs [125I]-CXCL12, membranes with CXCR4 (N119A)
human CXCR4 [13] = molecular target: T1, human CXCR4; assay: competition with [125I]-CXCL12, membranes of HEK293T cells expressing CXCR4
human CXCR4 [14] = molecular target: T1, human CXCR4; assay: competition binding vs [125I]-238D4, HEK293T-CXCR4 membranes; purified Nanobody at 0.5 µM, tracer [125I]-238D4
human CXCR4 [15] = molecular target: T1, human CXCR4; assay: competition binding vs [125I]-CXCL12, HEK293T-CXCR4 membranes; purified Nanobody at 0.5 µM, tracer [125I]-CXCL12
human CXCR4 [16] = molecular target: T1, human CXCR4; assay: competition binding vs [125I]-238D2, HEK293T-CXCR4 membranes; purified Nanobody at 0.5 µM, tracer [125I]-238D2

| Binder | binding (human CXCR4 [1]) | binding (human CXCR4 [2]) | binding (human CXCR4 [7]) | binding (human CXCR4 [9]) | binding (human CXCR4 [13]) | binding (human CXCR4 [14]) | binding (human CXCR4 [15]) | binding (human CXCR4 [16]) | also measured |
| --- | --- | --- | --- | --- | --- | --- | --- | --- | --- |
| 238C04 (VHH) VHH: EVQLVESGGGLVQAGGSLRLSCKASGGTFNNYAMGWFRRAPGKEREFVAAITRSGVRSGVSAIYGDSVKDRFTISRDNVKNTLYLQMNTLKPEDTAVYTCAASAIGSGALRRFEYDYSGQGTQVTVSS | binds | binds |  |  |  |  |  |  |  |
| Nanobody 238D4 (VHH, Monovalent llama VHH; also called 238G3; 238D4, G3) VHH: EVQLMESGGGLVQAGGSLRLSCAASGRTFNNYAMGWFRRAPGKEREFVAAITRSGVRSGVSAIYGDSVKDRFTISRDNAKNTLYLQMNSLKPEDTAVYTCAASAIGSGALRRFEYDYSGQGTQVTVSS | binds | binds | binds | binds | binds |  |  |  | binding (human CXCR4 [3]): binds; binding [4]: binds; binding (human CXCR4 [5]): binds; binding (human CXCR4 [6]): binds; binding (human CXCR4 [8]): binds; binding (human CXCR4 [10]): binds; binding [11]: binds; binding [12]: binds |
| 237D04 (VHH) VHH: EVQLVESGGGLVQPGGSLRLSCAASGFTFDDYAMSWVRQAPGKGLEWVSAISWNGGSADYADSVKGRFTISRDNAKNTLYLQMNSLKSEDTAVYYCAKDQGPFYSGTYYYTKGYAYWGQGTQVTVSS | binds | binds |  |  |  |  |  |  |  |
| 238D4-20GS-238D4 (VHH, Bivalent Nanobody, 20-residue GS linker; also called L13) EVQLMESGGGLVQAGGSLRLSCAASGRTFNNYAMGWFRRAPGKEREFVAAITRSGVRSGVSAIYGDSVKDRFTISRDNAKNTLYLQMNSLKPEDTAVYTCAASAIGSGALRRFEYDYSGQGTQVTVSSGGGGSGGGGSGGGGSGGGGSEVQLMESGGGLVQAGGSLRLSCAASGRTFNNYAMGWFRRAPGKEREFVAAITRSGVRSGVSAIYGDSVKDRFTISRDNAKNTLYLQMNSLKPEDTAVYTCAASAIGSGALRRFEYDYSGQGTQVTVSS |  |  |  |  | binds |  |  |  |  |
| Nanobody 237A6 (VHH, Monovalent VHH) VHH: EVQLVESGGGLVQAGGSLRLSCAASGSIFSLNAMGWYRQAPGKQRELVAGITSSTSTYYADSVKGRFTISRDNTKNTVYLQMNSLKPEDTAVYYCNVDCPDYYSDYECPLEDRGQGTQVTVSS |  |  | no binding (tested: log -6.3 M) | no binding (tested: log -6.3 M) | no binding (tested: log -6.3 M) | no binding (tested: 0.5 µM) | no binding (tested: 0.5 µM) | no binding (tested: 0.5 µM) |  |
| Nanobody 237D1 (VHH, Monovalent VHH) VHH: EVQLVESGGGLAQPGGPLRLTCEASGVIYSVNDMGWYRQAPGKQRELVAVITSGGGTNYVDSVKGRFTISGDNRKKTVYLQMNSLKPEDTAVYYCSIYYSSGISTLRSWGQGTQVTVSS |  |  | no binding (tested: log -6.3 M) | no binding (tested: log -6.3 M) | no binding (tested: log -6.3 M) | no binding (tested: 0.5 µM) | no binding (tested: 0.5 µM) | no binding (tested: 0.5 µM) |  |
| Nanobody 237G7 (VHH, Monovalent VHH) VHH: EVQLVESGGGLVQPGGSLRLSCAASSFIGNYHAIVWLRQAPGKELEGVSCITSRDSITYYASFVKGRFTISRDDAKNTVYLQMNNLKPEDTAVYYCAVBTSMTCPTLIVRFNYRGQGTQVTVSS |  |  | no binding (tested: log -6.3 M) | no binding (tested: log -6.3 M) | no binding (tested: log -6.3 M) | no binding (tested: 0.5 µM) | no binding (tested: 0.5 µM) | no binding (tested: 0.5 µM) |  |
